Binding data for four molecules are collected here from PMC7248104.

The chains behind the UniProt entries cited, without tags or fusion partners.
UniProt O60216: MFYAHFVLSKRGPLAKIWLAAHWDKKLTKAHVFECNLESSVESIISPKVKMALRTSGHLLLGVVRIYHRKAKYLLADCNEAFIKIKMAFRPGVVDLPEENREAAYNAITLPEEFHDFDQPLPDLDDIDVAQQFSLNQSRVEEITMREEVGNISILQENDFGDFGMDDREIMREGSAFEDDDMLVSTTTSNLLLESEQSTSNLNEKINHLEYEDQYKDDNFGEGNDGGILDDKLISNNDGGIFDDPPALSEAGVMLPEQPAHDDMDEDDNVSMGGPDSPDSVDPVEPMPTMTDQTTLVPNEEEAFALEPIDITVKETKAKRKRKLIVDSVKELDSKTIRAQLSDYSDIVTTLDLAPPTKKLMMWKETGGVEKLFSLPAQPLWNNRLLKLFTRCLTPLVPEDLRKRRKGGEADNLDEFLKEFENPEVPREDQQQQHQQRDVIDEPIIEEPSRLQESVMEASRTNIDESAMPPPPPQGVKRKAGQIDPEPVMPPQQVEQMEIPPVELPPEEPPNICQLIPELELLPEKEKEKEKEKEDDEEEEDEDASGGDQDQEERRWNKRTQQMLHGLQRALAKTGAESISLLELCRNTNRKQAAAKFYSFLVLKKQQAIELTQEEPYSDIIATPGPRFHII
UniProt Q9UQE7: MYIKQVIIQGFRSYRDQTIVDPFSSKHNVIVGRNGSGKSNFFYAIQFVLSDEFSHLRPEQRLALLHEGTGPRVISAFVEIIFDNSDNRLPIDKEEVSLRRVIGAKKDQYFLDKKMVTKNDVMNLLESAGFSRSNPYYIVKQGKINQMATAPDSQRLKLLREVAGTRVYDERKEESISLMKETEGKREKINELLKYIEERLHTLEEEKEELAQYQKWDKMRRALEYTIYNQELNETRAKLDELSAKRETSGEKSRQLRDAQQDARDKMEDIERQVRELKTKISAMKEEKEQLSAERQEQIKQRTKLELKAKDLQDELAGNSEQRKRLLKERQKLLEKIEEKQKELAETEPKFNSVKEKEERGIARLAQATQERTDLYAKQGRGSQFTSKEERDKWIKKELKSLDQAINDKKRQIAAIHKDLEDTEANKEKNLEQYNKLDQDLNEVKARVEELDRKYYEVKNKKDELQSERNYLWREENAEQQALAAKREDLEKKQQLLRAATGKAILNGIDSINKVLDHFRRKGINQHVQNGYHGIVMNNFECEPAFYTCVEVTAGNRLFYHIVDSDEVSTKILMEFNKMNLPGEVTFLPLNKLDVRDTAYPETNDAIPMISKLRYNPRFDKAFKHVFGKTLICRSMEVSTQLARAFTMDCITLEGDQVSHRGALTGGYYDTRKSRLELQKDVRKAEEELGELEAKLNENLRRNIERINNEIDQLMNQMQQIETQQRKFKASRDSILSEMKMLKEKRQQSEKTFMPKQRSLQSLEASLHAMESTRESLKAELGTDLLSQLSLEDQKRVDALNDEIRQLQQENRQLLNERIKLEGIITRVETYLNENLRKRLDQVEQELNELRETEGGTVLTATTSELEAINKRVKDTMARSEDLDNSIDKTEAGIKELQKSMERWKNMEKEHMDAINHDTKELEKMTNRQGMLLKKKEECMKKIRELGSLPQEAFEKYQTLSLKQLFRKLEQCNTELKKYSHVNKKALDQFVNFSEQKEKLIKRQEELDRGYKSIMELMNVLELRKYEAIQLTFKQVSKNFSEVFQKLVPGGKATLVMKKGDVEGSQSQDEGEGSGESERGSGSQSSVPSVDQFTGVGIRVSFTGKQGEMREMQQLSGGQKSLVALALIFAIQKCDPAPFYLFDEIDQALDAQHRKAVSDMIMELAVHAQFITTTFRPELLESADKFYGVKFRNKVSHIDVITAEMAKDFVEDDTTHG
UniProt P12270: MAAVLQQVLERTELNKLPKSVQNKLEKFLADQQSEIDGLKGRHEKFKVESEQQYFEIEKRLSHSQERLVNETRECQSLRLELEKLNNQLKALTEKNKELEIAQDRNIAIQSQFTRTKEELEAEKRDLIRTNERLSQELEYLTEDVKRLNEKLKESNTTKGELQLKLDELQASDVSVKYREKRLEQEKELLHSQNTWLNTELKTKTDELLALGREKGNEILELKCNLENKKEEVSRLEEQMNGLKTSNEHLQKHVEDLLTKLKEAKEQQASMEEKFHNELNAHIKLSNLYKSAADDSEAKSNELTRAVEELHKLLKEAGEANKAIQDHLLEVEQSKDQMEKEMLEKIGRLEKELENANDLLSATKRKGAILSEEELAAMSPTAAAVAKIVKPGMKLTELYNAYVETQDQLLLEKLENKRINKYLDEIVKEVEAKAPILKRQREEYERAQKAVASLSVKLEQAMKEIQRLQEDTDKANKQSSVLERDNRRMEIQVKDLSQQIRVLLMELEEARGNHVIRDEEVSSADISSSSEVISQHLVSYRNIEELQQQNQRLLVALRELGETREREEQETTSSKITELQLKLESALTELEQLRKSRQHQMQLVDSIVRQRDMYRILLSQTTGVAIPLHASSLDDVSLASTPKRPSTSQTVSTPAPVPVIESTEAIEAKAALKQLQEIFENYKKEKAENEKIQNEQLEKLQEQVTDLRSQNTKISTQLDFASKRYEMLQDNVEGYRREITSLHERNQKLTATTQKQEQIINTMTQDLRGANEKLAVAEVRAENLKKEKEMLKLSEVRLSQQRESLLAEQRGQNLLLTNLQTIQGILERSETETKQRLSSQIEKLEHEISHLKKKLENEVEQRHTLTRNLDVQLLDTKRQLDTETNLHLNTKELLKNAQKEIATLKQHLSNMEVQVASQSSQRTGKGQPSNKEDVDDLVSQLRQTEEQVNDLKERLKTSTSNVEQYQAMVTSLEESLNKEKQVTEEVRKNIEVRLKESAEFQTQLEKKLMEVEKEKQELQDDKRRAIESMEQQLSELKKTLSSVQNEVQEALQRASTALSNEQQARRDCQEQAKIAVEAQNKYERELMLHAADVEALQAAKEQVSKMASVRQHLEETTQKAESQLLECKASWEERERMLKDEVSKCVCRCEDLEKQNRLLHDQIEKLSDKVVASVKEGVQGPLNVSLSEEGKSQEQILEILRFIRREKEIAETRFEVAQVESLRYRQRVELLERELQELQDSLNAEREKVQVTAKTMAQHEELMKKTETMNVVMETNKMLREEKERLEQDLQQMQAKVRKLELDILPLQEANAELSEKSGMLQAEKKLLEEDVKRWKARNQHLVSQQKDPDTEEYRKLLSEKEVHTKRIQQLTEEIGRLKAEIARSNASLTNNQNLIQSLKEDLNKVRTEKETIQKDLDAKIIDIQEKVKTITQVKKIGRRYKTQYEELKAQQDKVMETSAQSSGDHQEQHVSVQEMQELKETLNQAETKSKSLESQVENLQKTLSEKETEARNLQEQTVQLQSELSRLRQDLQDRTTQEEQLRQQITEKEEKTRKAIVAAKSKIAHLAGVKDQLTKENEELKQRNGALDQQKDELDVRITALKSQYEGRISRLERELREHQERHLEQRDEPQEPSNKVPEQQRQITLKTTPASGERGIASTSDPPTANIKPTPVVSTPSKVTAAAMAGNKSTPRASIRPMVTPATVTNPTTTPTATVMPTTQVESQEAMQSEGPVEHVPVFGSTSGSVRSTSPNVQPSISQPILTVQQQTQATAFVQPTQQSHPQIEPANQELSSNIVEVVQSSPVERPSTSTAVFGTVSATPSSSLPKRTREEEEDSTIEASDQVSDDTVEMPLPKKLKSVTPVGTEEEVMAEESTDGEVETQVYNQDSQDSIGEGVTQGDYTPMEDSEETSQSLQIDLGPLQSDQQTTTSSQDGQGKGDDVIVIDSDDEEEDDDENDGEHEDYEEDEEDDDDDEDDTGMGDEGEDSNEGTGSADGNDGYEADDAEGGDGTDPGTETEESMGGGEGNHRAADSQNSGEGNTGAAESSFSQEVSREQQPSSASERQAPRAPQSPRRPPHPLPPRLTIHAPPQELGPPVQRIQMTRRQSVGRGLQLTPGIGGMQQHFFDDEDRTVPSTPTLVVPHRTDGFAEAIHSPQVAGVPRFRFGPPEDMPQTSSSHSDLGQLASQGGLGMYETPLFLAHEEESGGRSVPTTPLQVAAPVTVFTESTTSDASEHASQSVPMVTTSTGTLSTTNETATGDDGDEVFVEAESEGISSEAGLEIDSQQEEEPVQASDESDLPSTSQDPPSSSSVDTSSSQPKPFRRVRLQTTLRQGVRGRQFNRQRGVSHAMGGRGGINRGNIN

For the assay, the target named is T1, FLAG-tagged mouse NUP153 (mouse) (UniProt E9Q3G8).
T1 sequence: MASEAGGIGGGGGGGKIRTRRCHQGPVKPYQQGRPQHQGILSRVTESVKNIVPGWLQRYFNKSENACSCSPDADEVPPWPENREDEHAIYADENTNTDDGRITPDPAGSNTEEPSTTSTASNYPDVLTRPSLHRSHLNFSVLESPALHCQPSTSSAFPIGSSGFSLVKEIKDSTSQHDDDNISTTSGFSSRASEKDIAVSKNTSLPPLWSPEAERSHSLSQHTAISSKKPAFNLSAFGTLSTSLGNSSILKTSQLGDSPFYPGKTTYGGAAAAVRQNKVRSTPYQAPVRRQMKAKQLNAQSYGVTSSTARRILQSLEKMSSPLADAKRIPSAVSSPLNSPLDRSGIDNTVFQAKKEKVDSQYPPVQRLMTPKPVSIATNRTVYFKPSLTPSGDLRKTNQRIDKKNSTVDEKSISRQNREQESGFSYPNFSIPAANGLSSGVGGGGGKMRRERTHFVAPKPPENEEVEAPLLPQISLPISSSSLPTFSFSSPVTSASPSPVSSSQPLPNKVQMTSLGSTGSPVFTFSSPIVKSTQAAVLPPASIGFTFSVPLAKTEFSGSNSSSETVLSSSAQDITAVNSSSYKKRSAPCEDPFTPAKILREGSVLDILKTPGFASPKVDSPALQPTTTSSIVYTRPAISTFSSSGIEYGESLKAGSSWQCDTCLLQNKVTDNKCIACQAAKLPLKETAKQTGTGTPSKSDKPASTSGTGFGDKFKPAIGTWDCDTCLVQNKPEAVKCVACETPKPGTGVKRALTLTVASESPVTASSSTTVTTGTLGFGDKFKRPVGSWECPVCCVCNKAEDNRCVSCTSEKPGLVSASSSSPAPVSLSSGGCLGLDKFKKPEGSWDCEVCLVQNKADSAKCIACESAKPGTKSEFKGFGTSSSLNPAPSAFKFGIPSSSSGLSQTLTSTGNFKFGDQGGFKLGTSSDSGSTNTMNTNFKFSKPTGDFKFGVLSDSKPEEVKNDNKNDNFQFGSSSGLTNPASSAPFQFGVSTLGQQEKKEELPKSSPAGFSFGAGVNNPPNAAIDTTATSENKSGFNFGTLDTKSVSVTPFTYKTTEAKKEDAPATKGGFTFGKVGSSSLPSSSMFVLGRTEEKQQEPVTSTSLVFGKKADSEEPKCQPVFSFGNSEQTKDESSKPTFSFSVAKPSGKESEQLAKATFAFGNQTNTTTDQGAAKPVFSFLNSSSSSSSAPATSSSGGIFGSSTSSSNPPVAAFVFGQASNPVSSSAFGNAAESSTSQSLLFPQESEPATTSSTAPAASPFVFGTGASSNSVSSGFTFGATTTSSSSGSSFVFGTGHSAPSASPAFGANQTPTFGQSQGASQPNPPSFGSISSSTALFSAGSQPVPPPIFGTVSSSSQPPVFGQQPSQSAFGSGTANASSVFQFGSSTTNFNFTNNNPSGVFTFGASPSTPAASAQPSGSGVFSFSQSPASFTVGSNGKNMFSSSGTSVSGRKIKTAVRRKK
Briefly: affinity purification with mass spectrometry; FLAG-mNUP153 expressed in HEK293T; nuclear fraction pellet lysed, anti-FLAG M2 affinity gel at 4 °C for 2 h, eluted with FLAG peptide, LC-MS/MS; mock transfected cells as control.

Results are given in words; binding and its absence hold for the method and conditions named. In cells and extracts the contact can be indirect. These calls come from enrichment with a bait or labelling near it, and not all partners need be listed. Where a sequence is shown, tags or fusion partners need not be part of it.

For RAD21 (from UniProt O60216 1-631), the binding entry is “binds”.
In the case of SMC3 (from UniProt Q9UQE7 1-1217), the binding entry was “binds”.
Consider TPR (from UniProt P12270 1-2363), for which the binding result is recorded as “binds”.

B1: SMC1A (protein, UniProt Q14683 1-1233)
chain: MGFLKLIEIENFKSYKGRQIIGPFQRFTAIIGPNGSGKSNLMDAISFVLGEKTSNLRVKTLRDLIHGAPVGKPAANRAFVSMVYSEEGAEDRTFARVIVGGSSEYKINNKVVQLHEYSEELEKLGILIKARNFLVFQGAVESIAMKNPKERTALFEEISRSGELAQEYDKRKKEMVKAEEDTQFNYHRKKNIAAERKEAKQEKEEADRYQRLKDEVVRAQVQLQLFKLYHNEVEIEKLNKELASKNKEIEKDKKRMDKVEDELKEKKKELGKMMREQQQIEKEIKEKDSELNQKRPQYIKAKENTSHKIKKLEAAKKSLQNAQKHYKKRKGDMDELEKEMLSVEKARQEFEERMEEESQSQGRDLTLEENQVKKYHRLKEEASKRAATLAQELEKFNRDQKADQDRLDLEERKKVETEAKIKQKLREIEENQKRIEKLEEYITTSKQSLEEQKKLEGELTEEVEMAKRRIDEINKELNQVMEQLGDARIDRQESSRQQRKAEIMESIKRLYPGSVYGRLIDLCQPTQKKYQIAVTKVLGKNMDAIIVDSEKTGRDCIQYIKEQRGEPETFLPLDYLEVKPTDEKLRELKGAKLVIDVIRYEPPHIKKALQYACGNALVCDNVEDARRIAFGGHQRHKTVALDGTLFQKSGVISGGASDLKAKARRWDEKAVDKLKEKKERLTEELKEQMKAKRKEAELRQVQSQAHGLQMRLKYSQSDLEQTKTRHLALNLQEKSKLESELANFGPRINDIKRIIQSREREMKDLKEKMNQVEDEVFEEFCREIGVRNIREFEEEKVKRQNEIAKKRLEFENQKTRLGIQLDFEKNQLKEDQDKVHMWEQTVKKDENEIEKLKKEEQRHMKIIDETMAQLQDLKNQHLAKKSEVNDKNHEMEEIRKKLGGANKEMTHLQKEVTAIETKLEQKRSDRHNLLQACKMQDIKLPLSKGTMDDISQEEGSSQGEDSVSGSQRISSIYAREALIEIDYGDLCEDLKDAQAEEEIKQEMNTLQQKLNEQQSVLQRIAAPNMKAMEKLESVRDKFQETSDEFEAARKRAKKAKQAFEQIKKERFDRFNACFESVATNIDEIYKALSRNSSAQAFLGPENPEEPYLDGINYNCVAPGKRFRPMDNLSGGEKTVAALALLFAIHSYKPAPFFVLDEIDAALDNTNIGKVANYIKEQSTCNFQAIVISLKEEFYTKAESLIGVYPEQGDCVISKVLTFDLTKYPDANPNPNEQ
As for B1, the binding entry is given as “binds”.
